# Test results from article PMC5996148.
# Where “and” joins values, the source holds several entries; their conditions need not be identical. Identical values can stand only once. This is one part of the list.
# Assays:
# Test in all cases: protein microarray (ProtoArray v5.0), streptavidin-Alexa Fluor 647
# Settings in all cases: 3'-biotin; 20 mM Tris (pH 7.5), 5 mM MgCl2, 100 mM KCl, 0.1% Tween-20, A/T-rich and random oligonucleotide blockers; temperature not stated; high values mean tight binding
# DLX1 (human) = test system: DLX1 (human)
# DMD (human) = test system: DMD (human)
# DMKN (human) = test system: DMKN (human)
# DMPK (human) = test system: DMPK (human)
# DMRTC1 (human) = test system: DMRTC1 (human)
# [1] = test system: DNA replication complex GINS protein PSF3 (human)
# [2] = test system: DNA-directed RNA polymerase II subunit RPB11-a (human)
# [3] = test system: DNA-directed RNA polymerase III subunit RPC9 (human)
# DNAJC12 (human) = test system: DNAJC12 (human)
# DNAJC5G (human) = test system: DNAJC5G (human)
sequence,measurement,setting,value
GGGGACAGGGGTATGGGGAGGGG [G4-3 biotinylated (CtG)],binding signal,DLX1 (human),-0.329 z-score
same,binding signal,DMD (human),-0.334 z-score and -0.337 z-score
same,binding signal,DMKN (human),-0.3 z-score
same,binding signal,DMPK (human),-0.316 z-score
same,binding signal,DMRTC1 (human),-0.326 z-score
same,binding signal,[1],-0.323 z-score
same,binding signal,[2],-0.329 z-score
same,binding signal,[3],-0.308 z-score
same,binding signal,DNAJC12 (human),-0.327 z-score
same,binding signal,DNAJC5G (human),-0.327 z-score
